Test results published in the supplement of paper PMC10331698.
± gives the standard deviation of the averaged measurements. Most values lie at the level of the controls, where differences are scatter.

How the values were obtained:
Assay in all cases: level (log10 ratio to DMSO vehicle control); higher = higher biomarker level / cell amount than vehicle control
[1] = compound: CC(C)(C)C(=O)CC(=O)C(F)(F)C(F)(F)C(F)(F)F [(Heptafluorobutanoyl)pivaloylmethane]; conditions: 2200 nM; in DMSO
Protocol: (§1)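 BioMAP Diversity Plus panel of 12 human primary cell co-culture systems (3C, 4H, LPS, SAg, BT, BF4T, BE3C, CASM3C, HDF3CGF, KF3CT, MyoF, Mphg). Compounds were added 1 h before stimulation and left for 24 h (MyoF 48 h; BT 72 h for soluble read-outs or 6 d for IgG). Biomarkers were read by ELISA, cytotoxicity by SRB, PBMC viability and proliferation by Alamar Blue. Each well value was divided by the mean of 8 DMSO control wells on the same plate and log10 transformed; duplicate blinded samples were tested at 4 concentrations.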

1-(Perfluorohexyl)octane = compound: CCCCCCCCC(F)(F)C(F)(F)C(F)(F)C(F)(F)C(F)(F)C(F)(F)F [1-(Perfluorohexyl)octane]; conditions: in DMSO
Protocol: as §1

[2] = compound: CCN(CCO)S(=O)(=O)C(F)(F)C(F)(F)C(F)(F)C(F)(F)C(F)(F)C(F)(F)C(F)(F)C(F)(F)F [N-Ethyl-N-(2-hydroxyethyl)perfluorooctanesulfonamide]; conditions: in DMSO
Protocol: as §1

[3] = compound: CN(C(=O)C(F)(F)C(F)(F)C(F)(F)F)[Si](C)(C)C [N-Methyl-N-trimethylsilylheptafluorobutyramide]; conditions: 2200 nM; in DMSO
Protocol: as §1

[4] = compound: Cc1ccc(S(=O)(=O)OCC(F)(F)C(F)(F)C(F)(F)C(F)(F)C(F)(F)C(F)F)cc1 [1H,1H,7H-Perfluoroheptyl 4-methylbenzenesulfonate]; conditions: 2200 nM; in DMSO
Protocol: as §1

[5] = compound: FC(F)(F)C(F)(F)C(F)(F)C(F)(F)C(F)(F)C(F)(F)CC1CO1 [3-(Perfluorohexyl)-1,2-epoxypropane]; conditions: 2200 nM; in DMSO
Protocol: as §1

Heptafluorobutyramide = compound: NC(=O)C(F)(F)C(F)(F)C(F)(F)F [Heptafluorobutyramide]; conditions: 2200 nM; in DMSO
Protocol: as §1

[6] = compound: NCC(F)(F)C(F)(F)C(F)(F)C(F)(F)C(F)(F)C(F)(F)C(F)(F)F [1H,1H-Perfluorooctylamine]; conditions: 2200 nM; in DMSO
Protocol: as §1

Octafluoroadipic acid = compound: O=C(O)C(F)(F)C(F)(F)C(F)(F)C(F)(F)C(=O)O [Octafluoroadipic acid]; conditions: 2200 nM; in DMSO
Protocol: as §1

[7] = compound: O=C(O)C(F)(F)C(F)(F)C(F)(F)C(F)(F)C(F)(F)C(F)(F)C(F)(F)C(F)(F)C(F)(F)C(F)F [11-H-Perfluoroundecanoic acid]; conditions: 2200 nM; in DMSO
Protocol: as §1

Perfluoroheptanoic acid = compound: O=C(O)C(F)(F)C(F)(F)C(F)(F)C(F)(F)C(F)(F)C(F)(F)F [Perfluoroheptanoic acid]; conditions: in DMSO
Protocol: as §1

Perfluoropentanoic acid = compound: O=C(O)C(F)(F)C(F)(F)C(F)(F)C(F)(F)F [Perfluoropentanoic acid]; conditions: in DMSO
Protocol: as §1

[8] = compound: O=C(O)C(F)(F)C(F)(F)C(F)(F)OC(F)(F)F [Perfluoro(4-methoxybutanoic) acid]; conditions: 2200 nM; in DMSO
Protocol: as §1

[9] = compound: O=S(=O)(O)CCC(F)(F)C(F)(F)C(F)(F)C(F)(F)C(F)(F)C(F)(F)C(F)(F)C(F)(F)F [8:2 Fluorotelomer sulfonic acid]; conditions: in DMSO
Protocol: as §1

1H,1H-Heptafluorobutanol = compound: OCC(F)(F)C(F)(F)C(F)(F)F [1H,1H-Heptafluorobutanol]; conditions: 2200 nM; in DMSO
Protocol: as §1

[10] = compound: OCCC(F)(F)C(F)(F)C(F)(F)C(F)(F)C(F)(F)C(F)(F)F [6:2 Fluorotelomer alcohol]; conditions: 2200 nM; in DMSO
Protocol: as §1

| Test System | level (log10) [1] | level (log10) (1-(Perfluorohexyl)octane; 740 nM) | level (log10) (1-(Perfluorohexyl)octane; 2200 nM) | level (log10) ([2]; 2200 nM) | level (log10) ([2]; 6700 nM) | level (log10) ([2]; 20000 nM) | level (log10) [3] | level (log10) [4] | level (log10) [5] | level (log10) (Heptafluorobutyramide) | level (log10) [6] | level (log10) (Octafluoroadipic acid) | level (log10) [7] | level (log10) (Perfluoroheptanoic acid; 2200 nM) | level (log10) (Perfluoroheptanoic acid; 6700 nM) | level (log10) (Perfluoroheptanoic acid; 20000 nM) | level (log10) (Perfluoroheptanoic acid; 60000 nM) | level (log10) (Perfluoropentanoic acid; 2200 nM) | level (log10) (Perfluoropentanoic acid; 6700 nM) | level (log10) (Perfluoropentanoic acid; 20000 nM) | level (log10) (Perfluoropentanoic acid; 60000 nM) | level (log10) [8] | level (log10) ([9]; 2200 nM) | level (log10) ([9]; 6700 nM) | level (log10) ([9]; 20000 nM) | level (log10) ([9]; 60000 nM) | level (log10) (1H,1H-Heptafluorobutanol) | level (log10) [10] |
| --- | --- | --- | --- | --- | --- | --- | --- | --- | --- | --- | --- | --- | --- | --- | --- | --- | --- | --- | --- | --- | --- | --- | --- | --- | --- | --- | --- | --- |
| BT:Secreted IgG | -0.0225 ± 0.025 | -0.0075 ± 0.026 | -0.001 ± 0.038 | 0.023 ± 0.0085 | -0.002 ± 0.016 | -1.16 ± 0.3 | 0.029 ± 0.0099 | -0.0085 ± 0.005 | 0.0065 ± 0.0092 | 0.0445 ± 0.018 | 0.033 ± 0.054 | 0.0495 ± 0.06 | 0.0045 ± 0.037 | 0.0045 ± 0.0064 | 0.0185 ± 0.0092 | 0.007 ± 0.027 | -0.0365 ± 0.011 | -0.0075 ± 0.0092 | -0.0065 ± 0.016 | 0.0145 ± 0.0035 | -0.009 ± 0.059 | 0.027 ± 0.052 | -0.0035 ± 0.07 | 0.032 ± 0.0099 | -0.014 ± 0.031 | -0.025 ± 0.014 | 0.0355 ± 0.013 | 0.007 ± 0.057 |
| BT:sIL-2 | -0.021 ± 0.0085 | 0.026 | 0.028 ± 0.057 | -0.012 ± 0.021 | -0.046 ± 0.03 | -0.339 ± 0.076 | -0.0315 ± 0.016 | 0.0525 ± 0.067 | -0.0205 ± 0.0035 | 0.0355 ± 0.0078 | 0.03 ± 0.065 | 0.048 ± 0.079 | -0.054 ± 0.038 | -0.013 ± 0.068 | -0.0105 ± 0.14 | 0.0035 ± 0.037 | -0.008 ± 0.075 | 0.033 ± 0.11 | -0.0115 ± 0.17 | 0.0385 ± 0.00071 | 0.0385 ± 0.0078 | 0.027 ± 0.057 | 0.0225 ± 0.06 | -0.023 ± 0.073 | 0.0195 ± 0.057 | 0.009 ± 0.011 | 0.065 ± 0.1 | -0.0095 ± 0.13 |
| BT:sIL-6 | 0.013 ± 0.033 | -0.013 ± 0.0028 | 0.0075 ± 0.018 | 0.115 ± 0.11 | 0.078 ± 0.0014 | -0.049 ± 0.054 | -0.0735 ± 0.012 | 0.0045 ± 0.03 | -0.0335 ± 0.029 | 0.046 ± 0.072 | 0.0165 ± 0.032 | 0.049 ± 0.054 | -0.052 ± 0.021 | -0.022 ± 0.079 | 0.02 ± 0.065 | 0.0175 ± 0.044 | -0.0375 ± 0.071 | 0.028 ± 0.018 | -0.0355 ± 0.1 | 0.01 ± 0.051 | 0.022 ± 0.04 | 0.0175 ± 0.064 | 0.0145 ± 0.0064 | 0.015 ± 0.035 | 0.0445 ± 0.015 | -0.005 ± 0.085 | 0.0355 ± 0.043 | 0.0145 ± 0.04 |
| BT:sIL-17A | -0.166 ± 0.18 | 0.0075 ± 0.0064 | 0.113 ± 0.13 | 0.094 ± 0.15 | 0.122 ± 0.083 | -0.631 ± 0.21 | -0.013 ± 0.011 | 0.0175 ± 0.049 | -0.0825 ± 0.039 | -0.125 ± 0.099 | 0.0845 ± 0.013 | 0.0635 ± 0.12 | -0.072 ± 0.028 | 0.07 ± 0.098 | 0.047 ± 0.027 | 0.0865 ± 0.16 | -0.0095 ± 0.22 | -0.041 ± 0.13 | 0.0585 ± 0.042 | -0.0535 ± 0.0078 | 0.055 ± 0.13 | -0.032 ± 0.061 | -0.053 ± 0.17 | -0.152 ± 0.057 | -0.012 ± 0.013 | -0.0805 ± 0.16 | 0.052 ± 0.035 | -0.0085 ± 0.066 |
